Laboratory results reported in publication PMC5513536.
Results are given in words; binding and its absence hold for the method and conditions named. In cells and extracts the contact can be indirect. Here binding means that the protein was enriched with, or labelled near, the bait; the list need not be complete.

Protein sequences, listed by entry. Tags and fused reporters are not part of them.
UniProt F5HID2: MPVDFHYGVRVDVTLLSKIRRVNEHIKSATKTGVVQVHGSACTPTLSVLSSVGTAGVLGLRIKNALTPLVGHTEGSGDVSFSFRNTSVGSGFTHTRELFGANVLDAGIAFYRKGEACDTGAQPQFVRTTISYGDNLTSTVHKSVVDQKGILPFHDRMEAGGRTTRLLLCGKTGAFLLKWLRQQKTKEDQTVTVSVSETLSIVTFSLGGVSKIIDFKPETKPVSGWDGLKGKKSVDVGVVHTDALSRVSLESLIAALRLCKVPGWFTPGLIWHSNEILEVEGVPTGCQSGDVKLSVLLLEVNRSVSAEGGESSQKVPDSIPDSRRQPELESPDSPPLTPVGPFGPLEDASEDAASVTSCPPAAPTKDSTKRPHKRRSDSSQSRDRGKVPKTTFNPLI

Target: Flag-epitope tagged ORF59 (BAC16-ORF59Flag) (KSHV (human herpesvirus 8)) (UniProt F5HID2)
Assay: affinity purification with mass spectrometry

B1: Apoptotic chromatin dondensation inducer in the nucleus (protein, UniProt Q9UKV3 1-1341)
chain: MWRRKHPRTSGGTRGVLSGNRGVEYGSGRGHLGTFEGRWRKLPKMPEAVGTDPSTSRKMAELEEVTLDGKPLQALRVTDLKAALEQRGLAKSGQKSALVKRLKGALMLENLQKHSTPHAAFQPNSQIGEEMSQNSFIKQYLEKQQELLRQRLEREAREAAELEEASAESEDEMIHPEGVASLLPPDFQSSLERPELELSRHSPRKSSSISEEKGDSDDEKPRKGERRSSRVRQARAAKLSEGSQPAEEEEDQETPSRNLRVRADRNLKTEEEEEEEEEEEEDDEEEEGDDEGQKSREAPILKEFKEEGEEIPRVKPEEMMDERPKTRSQEQEVLERGGRFTRSQEEARKSHLARQQQEKEMKTTSPLEEEEREIKSSQGLKEKSKSPSPPRLTEDRKKASLVALPEQTASEEETPPPLLTKEASSPPPHPQLHSEEEIEPMEGPAPAVLIQLSPPNTDADTRELLVSQHTVQLVGGLSPLSSPSDTKAESPAEKVPEESVLPLVQKSTLADYSAQKDLEPESDRSAQPLPLKIEELALAKGITEECLKQPSLEQKEGRRASHTLLPSHRLKQSADSSSSRSSSSSSSSSRSRSRSPDSSGSRSHSPLRSKQRDVAQARTHANPRGRPKMGSRSTSESRSRSRSRSRSASSNSRKSLSPGVSRDSSTSYTETKDPSSGQEVATPPVPQLQVCEPKERTSTSSSSVQARRLSQPESAEKHVTQRLQPERGSPKKCEAEEAEPPAATQPQTSETQTSHLPESERIHHTVEEKEEVTMDTSENRPENDVPEPPMPIADQVSNDDRPEGSVEDEEKKESSLPKSFKRKISVVSATKGVPAGNSDTEGGQPGRKRRWGASTATTQKKPSISITTESLKSLIPDIKPLAGQEAVVDLHADDSRISEDETERNGDDGTHDKGLKICRTVTQVVPAEGQENGQREEEEEEKEPEAEPPVPPQVSVEVALPPPAEHEVKKVTLGDTLTRRSISQQKSGVSITIDDPVRTAQVPSPPRGKISNIVHISNLVRPFTLGQLKELLGRTGTLVEEAFWIDKIKSHCFVTYSTVEEAVATRTALHGVKWPQSNPKFLCADYAEQDELDYHRGLLVDRPSETKTEEQGIPRPLHPPPPPPVQPPQHPRAEQREQERAVREQWAEREREMERRERTRSEREWDRDKVREGPRSRSRSRDRRRKERAKSKEKKSEKKEKAQEEPPAKLLDDLFRKTKAAPCIYWLPLTDSQIVQKEAERAERAKEREKRRKEQEEEEQKEREKEAERERNRQLEREKRREHSRERDRERERERERDRGDRDRDRERDRERGRERDRRDTKRHSRSRSRSTPVRDRGGRR
- binding: binds
